PubChem BioAssay AID493014 (National Center for Advancing Translational Sciences (NCATS), 2011)
Hit rate of the full screen: of about 340,000 compounds, about 170 (0.05%) were called active. This list was built around the results that the source calls inconclusive (neither active nor inactive); the mix of calls is not that of the screen. Calls come from the whole dose curve; as a rule, active = well fitted inhibition curve with a large enough effect in the signal ratio, with a control signal flat (not every such curve was filed as active); inconclusive = small, poorly fitted or top-dose-only effect, or effect the other way, or a change in a side signal; inactive = flat fitted curve, though single readings scatter; the % refers to the signal ratio. Potencies beside an inconclusive call are fits to weak or partial responses and may not hold up.

assay: qHTS Assay to Find Inhibitors of Chronic Active B-Cell Receptor Signaling; conditions: ABC-DLBCL IkBa-CBG/CBR reporter, luminescence ratio (green luciferase fused to IkBa over red control in TMD8 lymphoma cells), 4 h; activity change, negative = inhibition: at 46.1 µM (top of the series);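 for activity change, negative = inhibition: plate controls were basal doxycycline-induced cells for no effect and cells given 10 µM MG132 for full effect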
Method in brief: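 TMD8 ABC-DLBCL cells carrying doxycycline-inducible green luciferase fused to IkappaBalpha plus unfused red luciferase were exposed to compounds (up to 46 uM) for 4 hrs at 37C. Activity came from the overlap-corrected green/red luminescence ratio.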
Potency is the fitted concentration of half-maximal effect.

**Q.** With `Cc1ccc(N2C(=O)N(CC(=O)Nc3ccc(C)cc3[N+](=O)[O-])C(=O)C2C)cc1` (stereo unspecified) as the molecule, how does the activity change, negative = inhibition read?
**A.** The activity change, negative = inhibition was inconclusive: 3.78%.

**Q.** With `O=C(Nc1ccccn1)C(=O)Nc1ccccn1` as the molecule, how does the Potency read?
**A.** Its Potency is inconclusive: 5.62 µM [rising, single point].

**Q.** Which activity change, negative = inhibition does the source give for `COCCn1nnnc1CN(CCc1ccc(OC)c(OC)c1)Cc1cc2ccc(C)cc2[nH]c1=O` here?
**A.** Its activity change, negative = inhibition is inconclusive: -19.7%.

**Q.** With `O=[N+]([O-])c1ccc(CSc2nnc(Cc3ccccc3)o2)cc1` as the molecule, how does the activity change, negative = inhibition read?
**A.** The activity change, negative = inhibition was inconclusive: -3.99%.

**Q.** For `O=C(Nc1nc(-c2cccs2)cs1)c1ccco1`, which activity change, negative = inhibition is on record?
**A.** The activity change, negative = inhibition was “inactive”.

**Q.** With `Cc1ccc(C(=O)C(C(=O)/C=C/c2ccccc2)=C2SCCCS2)cc1` as the molecule, how does the Potency read?
**A.** Its Potency is inconclusive: 6.51 µM [falling, full curve, poor fit].

**Q.** With `CN1CCCN(C(c2ccccc2)c2ccc(Cl)cc2)CC1` (stereo unspecified) as the molecule, how does the Potency read?
**A.** The Potency was inconclusive: 0.708 µM [falling, full curve, poor fit].

**Q.** Which Potency does the source give for `CC1=Nc2ccccc2/C1=C/c1sc(=N)n(-c2nccs2)c1O` here?
**A.** The Potency was inconclusive: 35.5 µM [falling, single point].

**Q.** Which Potency does the source give for `CC1(C)Cc2[nH]c(=S)c(C#N)cc2CO1` here?
**A.** Its Potency is inconclusive: 11.2 µM [falling, partial curve, poor fit].

**Q.** Which activity change, negative = inhibition does the source give for `O=S(=O)(NC1CCN(S(=O)(=O)c2c(F)cccc2F)CC1)c1ccc2c(c1)OCCO2` here?
**A.** The activity change, negative = inhibition was “inactive”.

**Q.** For `C[C@@H]1C[C@H]2[C@@H]3CCC4=CC(=O)C=C[C@]4(C)[C@@]3(Cl)[C@@H](O)C[C@]2(C)[C@@]1(OC(=O)c1ccco1)C(=O)CCl`, which activity change, negative = inhibition is on record?
**A.** Its activity change, negative = inhibition is inconclusive: -22.6%.

**Q.** For `Cc1cccc(NC(=O)CCNS(=O)(=O)c2cc(Br)cnc2N)c1C`, which activity change, negative = inhibition is on record?
**A.** Its activity change, negative = inhibition is “inactive”.

**Q.** Which activity change, negative = inhibition does the source give for `CCN1CCN(c2ncc3c(n2)CC(c2cc(OC)c(OC)c(OC)c2)CC3=O)CC1` (stereo unspecified) here?
**A.** The activity change, negative = inhibition was inconclusive: -0.507%.

**Q.** With `O=C(N/N=C/c1oc(O)c2ccccc12)c1ccccc1O` as the molecule, how does the Potency read?
**A.** Its Potency is inconclusive: 3.98 µM [rising, full curve, poor fit].

**Q.** Which activity change, negative = inhibition does the source give for `O=C(CSc1nnc(NC(=O)c2c(F)cccc2F)s1)NCc1ccc(F)cc1` here?
**A.** The activity change, negative = inhibition was inconclusive: -2.38%.

**Q.** Which activity change, negative = inhibition does the source give for `NC(=O)C[n+]1cccc(CNC(=O)c2ccc(OC(F)F)cc2)c1` here?
**A.** The activity change, negative = inhibition was “inactive”.

**Q.** For `O=C1CCCCC1c1cccc2ccccc12` (stereo unspecified), which activity change, negative = inhibition is on record?
**A.** Its activity change, negative = inhibition is “inactive”.

**Q.** With `CCCCCn1c(NC(=O)c2ccco2)c(S(=O)(=O)c2ccc(C)cc2)c2nc3ccccc3nc21` as the molecule, how does the activity change, negative = inhibition read?
**A.** The activity change, negative = inhibition was inconclusive: 5.81%.

**Q.** With `O=C(NC1CCCCCC1)C1CC(=O)N(c2ccc(Cl)cc2)C1` (stereo unspecified) as the molecule, how does the activity change, negative = inhibition read?
**A.** The activity change, negative = inhibition was inconclusive: -20.4%.

**Q.** For `C/C(=N/NC(=O)c1ccco1)c1ccc(Br)s1`, which activity change, negative = inhibition is on record?
**A.** Its activity change, negative = inhibition is inconclusive: -2.52%.

**Q.** Which Potency does the source give for `O=C1c2c(O)cc(O)cc2O[C@H](c2ccc(O)c(O)c2)[C@@H]1O` here?
**A.** The Potency was inconclusive: 17.8 µM [falling, single point].
